One experiment deals with C. albicans (MY 1750). In words: broth microdilution MIC/MFC assay. As to conditions: Candida albicans, 24 h, read-out: Minimum Inhibitory Concentration (MIC).
Experiment [1] deals with Candids albicans (MY 1028). The experiment in a line: broth microdilution MIC/MFC assay. As to conditions: Candida albicans, 24 h, read-out: Minimum Inhibitory Concentration (MIC).

Converted amounts (≈) assume the structure as drawn.

Turning to `C[C@@H]1[C@H](O)[C@@H](C)/C=C/C=C/C=C/C=C/C=C/C=C/C=C/[C@H](O[C@@H]2O[C@H](C)[C@@H](O)[C@H](N)[C@@H]2O)C[C@@H]2O[C@](O)(C[C@@H](O)C[C@@H](O)[C@H](O)CC[C@@H](O)C[C@@H](O)CC(=O)O[C@H]1C)C[C@H](O)[C@H]2C(=O)O` [Amphotericin B, reference compound], the MIC (in the experiment with C. albicans (MY 1750); in experiment [1]) was 2 µg/mL (≈ 2.16 µM) each time.

Values taken from US5441987A, “Antifungal agent” (Merck & Co., Inc., priority 1994, dated 1995).
